Reference: patent US9303088B2, “Detecting and treating breast cancer resistance to EGFR inhibitors” (The Regents of the University of California, priority 2009, dated 2016)
At least one structure is not confirmed: it was looked up by name or label, or the drawing left a doubt.

Experiments:
HMT3522 T4-2 cells = experiment: Phenotypic reversion of malignant T4-2 cells cultured in 3D lrECM with signaling inhibitors; format: cell-based, human; conditions: T4-2 cells in 3D lrECM, 6 μM LY294002
From the text: The retroviral cDNA library from malignant T4-2 cells was re-introduced into T4-2 cells. Retrovirus transduced T4-2 cells were subsequently grown on 3D1rECM with one of the small molecule inhibitors, AG1478 (EGFR inhibitor), PD98059 (mitogen-activated protein kinase inhibitor), or LY294002 (PI3K inhibitor), […] […] After the second round of screening, the cDNA inserts were recovered from genomic DNA by PCR using primers to the flanking sequences of the retroviral cloning vector. Genomic DNA was isolated from selected clones grown on the monolayer.
Microscopic visual fields of FIG. 3 show non-malignant HMT3522 S1 cells form polarized acinar structures (FIG. 3A) resembling normally differentiated acinus in vivo, whereas malignant T4-2 cells form disorganized colonies constantly growing on 3D 1rECM (FIG. 3B).
FIG. 4B is a western blot of extracted cell lysates blotted with antibodies against EGFR, β-integrin, phosphorylated EGFR, and E-cadherin, which was used as a loading control.

[1] = test system: FAM83A overexpressing T4-2 cells; experiment: Phenotypic reversion of FAM83A-overexpressing T4-2 cells in 3D lrECM with inhibitors; format: cell-based, human; conditions: 3D lrECM (FIG. 5B)

With O=c1cc(N2CCOCC2)oc2c(-c3ccccc3)cccc12 [LY294002] the “induction of phenotypically normal acinus-like structures” value (HMT3522 T4-2 cells) was “phenotypically normal acinus-like structures were induced” and the “phenotypic reversion of full-length FAM83A overexpressing T4-2 cells” value [1] was “undergo phenotypic reversion”.
